# Primary screen of a compound library

Amino acid sequences for entries named in this document (tags omitted). Residues count along the entry.
UniProt A4I591, 1-473: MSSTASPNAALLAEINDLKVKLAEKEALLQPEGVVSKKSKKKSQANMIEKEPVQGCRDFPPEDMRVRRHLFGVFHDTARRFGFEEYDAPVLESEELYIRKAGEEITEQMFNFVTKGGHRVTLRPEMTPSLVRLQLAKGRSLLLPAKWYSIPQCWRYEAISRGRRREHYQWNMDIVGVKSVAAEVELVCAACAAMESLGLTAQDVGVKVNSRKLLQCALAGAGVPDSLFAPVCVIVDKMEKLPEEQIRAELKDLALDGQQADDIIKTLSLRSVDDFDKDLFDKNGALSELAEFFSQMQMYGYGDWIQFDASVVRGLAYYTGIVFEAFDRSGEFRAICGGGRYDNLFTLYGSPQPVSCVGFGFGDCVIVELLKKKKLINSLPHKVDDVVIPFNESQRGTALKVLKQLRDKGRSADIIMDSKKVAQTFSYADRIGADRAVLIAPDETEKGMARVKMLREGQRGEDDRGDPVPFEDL

The values are deposited in ChEMBL (CHEMBL3988442, “University of Dundee, Small-Polar-MMV Screening Library” (2021)).

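Enzyme assay of histidyl-tRNA synthetase; the read-out is not stated. Target: Histidine-tRNA ligase, Leishmania infantum (UniProt A4I591). Tested at 30 µM. Higher reads as stronger inhibition (inferred: compounds with an IC50 in retests scored well above the rest). The assay is labelled LdHisRS but filed under L. infantum. About 69,000 compounds were tested under these conditions; 0.6% (about 410) showed 50% or more at least once.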

The filed quantity is “Percent Effect” (%).
How 0% and 100% were set is not recorded. Most values in the screen are low, and negative values occur.
Compounds were drawn at random from those tested, without regard to their results.

| compound | effect |
|---|---|
| `CC(C)(C)OC(=O)N1CCCN1C(=O)c1cccc(F)c1F` | 5.085 |
| `Cc1[nH]c2ccc(C(=O)N3C[C@@H](O)[C@H](N4CCOCC4)C3)cc2c1C` | -3.158 |
| `CN(c1ccc(C(N)=O)nn1)C1CCC1` | 7.692 |
| `Cc1ncc(C(=O)OCC2CCN(c3ccccc3)C2)s1` (centres unmarked) | 12.35 |
| `COc1ccc(-c2ccc(C(=O)NS(C)(=O)=O)c(F)c2)c(F)c1` | 22.22 |
| `CCN(CC1CCOC1)C(=O)c1nc(-c2ccco2)sc1C` (centres unmarked) | 21.92 |
| `CNC(=O)NC(=O)CN(Cc1ccc(C#N)cc1)Cc1cccc(F)c1` | 3.109 |
| `Cn1nc(CN2CCCCC2)c2c1CN(Cc1ccoc1)C2` | 10.26 |
| `NC(=O)[C@H]1CCCN(c2nccc(-c3ccncc3)n2)C1` | 2.857 |
| `Cc1nc(CN2CCc3nn(C)c(=O)cc3C2)oc1C` | 14.91 |
| `Cn1nc(C(=O)N2CCCC2)c2c1CN(CC1CCOCC1)C2` | 13.68 |
| `OCCOc1ccccc1CN1CCCC(O)(CO)C1` (centres unmarked) | -5.128 |
| `CCOCC(O)CN1CCN(C(=O)Cc2ccccc2C)CC1` (centres unmarked) | 18.4 |
| `CCCc1nc(N[C@H]2COC[C@@H]2N2CCCC2)c2cnn(C)c2n1` | 14.46 |
| `CNC(=O)CN(C)C(=O)c1cc(Cl)c(Cl)n1C` | -2.083 |
| `CC(NC(=O)NCc1c(F)cccc1Cl)(C(=O)O)c1ccco1` (centres unmarked) | 6.14 |
| `Cc1cc(C)n(-c2ccc(C(=O)NCC(CO)Cc3cccs3)cc2)n1` (centres unmarked) | 18.18 |
| `O=C(CSc1nnc(N2CCCC2)s1)NC(=O)Nc1ccccc1` | 17.24 |
| `Cn1cc(N2CCC(NC(=O)c3c(F)cccc3Cl)C2=O)cn1` (centres unmarked) | 9.836 |
| `CC(O)(CNC(=O)NCc1cccc(-n2cncn2)c1)c1ccco1` (centres unmarked) | 14.75 |
| `CCN(C(=O)c1cccc2c1OCO2)c1ccccc1` | 6.838 |
| `CC(NC(=O)NCCCN1CCCCCC1=O)c1nncn1C` (centres unmarked) | 0 |
| `CC(C)N1CC[C@H](c2nnc(Cc3c[nH]c4ccccc34)o2)C1` | 21.62 |
| `CCOC(=O)N1CC2(CCNCC2)c2cc(Cl)ccc21` | 6.422 |
| `O=C(NCCc1c[nH]c2ccccc12)C1CCC(Cn2cnnn2)CC1` (centres unmarked) | 21.05 |
| `Cc1cc2[nH]c(=O)oc2cc1S(=O)(=O)N1CCC(N2CCCC2=O)CC1` | 11.48 |
| `O=C(O)c1c(-c2ccncc2)ncc2c1CCN(Cc1ccco1)C2` | 5.66 |
| `CC(C)c1cc(C(=O)N2CCCC(c3cc(=O)nc4n3CCC4)C2)no1` (centres unmarked) | 8.054 |
| `CNC(=O)C1CCN(c2ncnc3c2CCN(C(=O)C2CC2)C3)C1` (centres unmarked) | 10.85 |
| `C[C@@H]1C[C@H](C(F)(F)F)n2nc(C3CCN(C(=O)C(C)(C)C)CC3)cc2N1` | -10 |
| `COCc1nc(C2CC2)nn1-c1ccccc1Cl` | 13.95 |
| `COCCn1cc2c(n1)C(CNCc1cccc(OC)c1)OCC2` (centres unmarked) | 15.28 |
| `COc1ccc(NCc2ccccc2N2CCN(C(C)=O)CC2)cn1` | 24.66 |
| `N#Cc1cccc(CN2C(=O)c3ccccc3CS2(=O)=O)c1` | 8.929 |
| `Cc1ccc(N2CC[C@@H]3[C@@H]2CCN3C(=O)Cc2ccccc2)nn1` | 6.306 |
| `CCn1nc(C)c2c1cnn2CC(=O)NC(C)c1cccc(OC)c1` (centres unmarked) | 7.143 |
| `COc1ccccc1CN1CC[C@]2(C[C@@H](OCC(=O)N(C)C)CO2)C1` | 18 |
| `N#Cc1cn(CCCN2CCc3ccccc32)c(=O)[nH]c1=O` | 8.065 |
| `NC(=O)c1ccc(CN2CCC(N3CCCC3)CC2)cc1` | 22.35 |
| `COCCOCC(=O)N1CCCC(c2ncc[nH]2)C1` (centres unmarked) | 13.25 |
| `O=C(c1ccncc1)N1CCC2(CC1)CCN(Cc1ccccn1)C2=O` | 2.655 |
| `CC(C)NC(=O)C1CN(C(=O)Nc2cccc(F)c2)CC12CCOCC2` (centres unmarked) | 8.257 |
| `COc1ncc(C)cc1NC(=O)COc1ccccc1F` | 14.29 |
| `CC(C)c1nc(C2CCCN(C(=O)CCCn3cccn3)C2)no1` (centres unmarked) | 19.23 |
| `N#Cc1ccc(CN2CCN(Cc3ccncc3Cl)CC2=O)cc1` | 7.292 |
| `CN(C)S(=O)(=O)c1ccc2c(c1)N(Cc1ccccn1)CCC2` | 13.51 |
| `CC1=C[C@@H](CN2CCC(O)CC2)[C@H](C(C)C)C[C@H]1Cc1nnc(C)o1` | 16.22 |
| `Cn1cc(-c2cnc(-c3ccnn3C)nc2)cc1C(=O)NC1CC1` | 9.434 |
| `O=C(NCC1CC1)C12CC(CN1Cc1nccs1)C2` | 17.24 |
| `N#Cc1ccc(F)c(CN2CCCC2Cn2cncn2)c1` (centres unmarked) | 7.853 |
| `COCCNC(=O)c1nc(-c2ccc3cc[nH]c3c2)no1` | 15.79 |
| `O=C(COC1CCCC1)NCCc1nc(-c2ccccn2)cs1` | 18.58 |
| `Cc1ccc(F)cc1CC(=O)N(CCN1CCOCC1)Cc1ccco1` | 18.4 |
| `CC(O)CN1CCc2onc(-c3ccccc3F)c2C1` (centres unmarked) | 18.07 |
| `O=C(c1ccncc1)N1CCC2(CCCN(c3ncc(F)cn3)C2)C1` (centres unmarked) | 10 |
| `CCN1CCN(C(C)CNC(=O)Nc2nnc(C(C)C)s2)CC1` (centres unmarked) | 11.71 |
| `O=C(COCC1CC1)N1CCN(C(=O)Cc2ccccn2)CC1` | 14.91 |
| `COC(=O)[C@H](C)NC(=O)Cn1ccc2ccc(F)cc21` | 14.58 |
| `Cc1cnn(CCCNC(=O)NC(C)C(=O)Nc2ccccc2)c1` (centres unmarked) | 18.07 |
| `O=C(Nc1ccccc1)C1=NOC2(CCCN(C(=O)C3CCCC3)C2)C1` (centres unmarked) | 9.722 |
| `CCCc1cc(NC2CCc3nc(C)nn3C2)n2ncnc2n1` (centres unmarked) | 17.28 |
| `Cc1ocnc1C(=O)N1CCN(Cc2ccccc2)[C@@H]2CS(=O)(=O)C[C@@H]21` | 13.33 |
| `Cc1c(S(=O)(=O)N(CCc2ccccc2)Cc2ccn(C)n2)cnn1C` | 8.621 |
| `COc1ncccc1CNC(=O)c1cnccn1` | 13.89 |
| `Cc1ccccc1C(=O)N1Cc2c(Cn3ccnc3)nn(C)c2C1` | 3 |
| `O=C(CCN1CCc2ccccc21)N1C[C@@H](O)[C@H](N2CCCC2)C1` | 10.34 |
| `CN1CCN2CCN(C(=O)c3cc4ncc(CCO)cn4n3)CC2C1` (centres unmarked) | 6.579 |
| `Cc1cc(C(=O)NCC(C)N2CCc3ccccc32)on1` (centres unmarked) | 15.38 |
| `CCc1cc(N2CCC(NCCc3ccc(C)o3)CC2)nc(C)n1` | 30.12 |
| `CCCc1n[nH]c(C2CN(C(=O)Cc3ccc(C)nc3)CCO2)n1` (centres unmarked) | 6.849 |
| `CCOc1ccc(C(=O)N2CCCC2c2c(C)nn(C)c2OC)cn1` (centres unmarked) | 8.547 |
| `COC(=O)c1cccn1C1CCN(S(=O)(=O)c2ccccc2)CC1` | 11.97 |
| `CCc1ncc2c(n1)CN(C(C)C(=O)Nc1ccc(Cl)cn1)CC2` (centres unmarked) | 5.172 |
| `OCCC1CN(C2CCC2)CCN1C1CCCC1` (centres unmarked) | 12.5 |
| `Cc1ccc(CC(=O)N2CCOCC2c2ncon2)cc1` (centres unmarked) | 3.636 |
| `COc1ccc2c(c1)C(C(=O)NCCCN1CCN(C)CC1)CC(=O)N2` (centres unmarked) | 12.82 |
| `COCCN1CCCC2(CCN(Cc3nnc(C4CC4)o3)C2)C1=O` (centres unmarked) | -2.655 |
| `Cc1nn2cnnc2c(C)c1CCC(=O)Nc1nc2c(s1)CCC2` | 23.08 |
| `COc1cccc2c1ccn2CCC(=O)NCCCC(=O)O` | 33.01 |
| `CC(c1nc(C2CC2)no1)N1CCC(NS(=O)(=O)c2cccs2)CC1` (centres unmarked) | 15 |
| `O=C(CCC1CCCO1)N1CCc2nc(-c3cnccn3)nc(O)c2C1` (centres unmarked) | 5.208 |

Some entries from above, unchanged:

compound	effect
CCOc1ccc(C(=O)N2CCCC2c2c(C)nn(C)c2OC)cn1 (centres unmarked)	8.547
COc1ccc2c(c1)C(C(=O)NCCCN1CCN(C)CC1)CC(=O)N2 (centres unmarked)	12.82
CCOC(=O)N1CC2(CCNCC2)c2cc(Cl)ccc21	6.422
CC(O)CN1CCc2onc(-c3ccccc3F)c2C1 (centres unmarked)	18.07
CN(C)S(=O)(=O)c1ccc2c(c1)N(Cc1ccccn1)CCC2	13.51
CCOCC(O)CN1CCN(C(=O)Cc2ccccc2C)CC1 (centres unmarked)	18.4